Results on 2 molecules are retold here after article PMC5293587.

Results are given in words; binding and its absence hold for the method and conditions named. In cells and extracts the contact can be indirect. Binding can be weak; no strength is given. Sequences can lack the tags named with a protein.

One test has as its target GST-HEY1 (full-length). Nature of the test: pull-down; GST fusion proteins purified and bound to Sepharose beads, incubated with whole cell extracts of transfected U2OS cells in NETN buffer (20 mM Tris/HCl pH 8.0, 1 mM EDTA, 0.5% Nonidet P-40, 100 mM NaCl); western blot of bound proteins; only the target purified. In general terms: Immunoblotting shows a protein as a band on a membrane.

The next test deals with GST-HEY1-S68D. Described as above.

B1: Flag-tagged HEY2 (hairy/enhancer-of-split related with YRPW motif 2) (protein, UniProt Q9UBP5 1-337)
chain: MKRPCEETTSESDMDETIDVGSENNYSGQSTSSVIRLNSPTTTSQIMARKKRRGIIEKRRRDRINNSLSELRRLVPTAFEKQGSAKLEKAEILQMTVDHLKMLQATGGKGYFDAHALAMDFMSIGFRECLTEVARYLSSVEGLDSSDPLRVRLVSHLSTCATQREAAAMTSSMAHHHHPLHPHHWAAAFHHLPAALLQPNGLHASESTPCRLSTTSEVPPAHGSALLTATFAHADSALRMPSTGSVAPCVPPLSTSLLSLSATVHAAAAAATAAAHSFPLSFAGAFPMLPPNAAAAVAAATAISPPLSVSATSSPQQTSSGTNNKPYRPWGTEVGAF
In the case of B1, the binding result with GST-HEY1 (full-length) is on record as “binds”.

B2: Flag-tagged NONO (Non-Pou Domain Containing, Octamer-Binding) (protein, UniProt Q15233 1-471)
chain: MQSNKTFNLEKQNHTPRKHHQHHHQQQHHQQQQQQPPPPPIPANGQQASSQNEGLTIDLKNFRKPGEKTFTQRSRLFVGNLPPDITEEEMRKLFEKYGKAGEVFIHKDKGFGFIRLETRTLAEIAKVELDNMPLRGKQLRVRFACHSASLTVRNLPQYVSNELLEEAFSVFGQVERAVVIVDDRGRPSGKGIVEFSGKPAARKALDRCSEGSFLLTTFPRPVTVEPMDQLDDEEGLPEKLVIKNQQFHKEREQPPRFAQPGSFEYEYAMRWKALIEMEKQQQDQVDRNIKEAREKLEMEMEAARHEHQVMLMRQDLMRRQEELRRMEELHNQEVQKRKQLELRQEEERRRREEEMRRQQEEMMRRQQEGFKGTFPDAREQEIRMGQMAMGGAMGINNRGAMPPAPVPAGTPAPPGPATMMPDGTLGLTPPTTERFGQAATMEGIGAIGGTPPAFNRAAPGAEFAPNKRRRY
In the case of B2, the binding entry in the test with GST-HEY1-S68D and with GST-HEY1 (full-length) was “binds” throughout.
